In patent US20150094364A1, “METHOD OF USING THEAFLAVIN” (priority 2013, published 2015):

Assay: Body weight, liver weight and liver/body ratio in ethanol-fed rats (ALD model)
Type: in vivo, Wistar rats
Settings: ethanol 6000 mg/kg BW per day, beginning of 30-day study
Description: 6-week old male rats (Wistar rats) were stabilized and then divided into 5 groups with 10 rats per group (n=10). Rats overdosed with ethanol were used as an experimental model for human ALD. Four groups of rats were fed with ethanol at a dose of 6000 mg/kg BW (50% ethanol at 12 ml/kg BW) per day for 30 days. These four groups were divided into positive control, theaflavin (low), theaflavin (mid), and theaflavin (high). Theaflavin (capsule, Xiayie) was also fed to rat at a dose of 83 mg/kg BW (low), 250 mg/kg (mid), and 500 mg/kg (high). In addition, Fifth group was fed with water as a negative control. Animals were sacrificed after the 30-day study and livers were collected for further analyses.

Which results are given for `O=c1c(O)cc([C@H]2Oc3cc(O)cc(O)c3C[C@H]2O)cc2c([C@H]3Oc4cc(O)cc(O)c4C[C@H]3O)cc(O)c(O)c12` [Theaflavin, theaflavin]?
BW (beginning) (83 mg/kg BW theaflavin): 193.3 ± 8.06 g; BW (beginning) (250 mg/kg BW theaflavin): 192.3 ± 12.34 g; BW (beginning) (500 mg/kg BW theaflavin): 194.3 ± 9.86 g
